According to publication PMC10657444, “Design and evaluation of tadpole-like conformational antimicrobial peptides” (Communications Biology, 2023):
Where “and” joins values, the source holds several entries; their conditions need not be identical. Identical values can stand only once. This continues a long series; more values of the same kind are listed elsewhere. Non-standard residues stand in square brackets, D forms with d. Residues, ends and D or L forms follow the SMILES beside them.

How the values were obtained:
[1] = tested on: K. pneumoniae ATCC 700603; test: Membrane depolarization assay, DiSC3(5); type: cell-based, Klebsiella pneumoniae
Method: (§1) MRSA USA 300 and K. pneumoniae ATCC 700603 were inoculated into 5 mL of LB and shaken at 37°C and 225 rpm to OD600 ≈ 0.5 (i.e., mid-logarithmic phase). Bacteria were collected by centrifugation at 8000 rpm for 5 min, and washed twice with assay buffer (5 mM HEPES, 20 mM glucose, 10 mM KCl, pH 7.2). Bacteria were resuspended in the assay buffer to OD595 ≈ 0.1. DiSC3(5) was added to the cells at final concentration of 0.3 µM, wrapped with aluminum foil, and incubated at 37°C, until a stable fluorescence was observed. Two microliter of compound or DMSO were transferred into 96-well black walled polystyrene plates, to which was added 98 µL per well of the dye-saturated bacterial cells to initiate the reaction. The final concentration of HT2 and RI-HT2 were 1 ×, 2 ×, 4 × and 8 × MIC. Plates were immediately read on an Envison at λex = 622 nm/ λem = 670 nm with a kinetic program (reading every 1 min for 10 min) until the maximal intensity achieved was observed.

MRSA USA 300 = test: Membrane depolarization assay, DiSC3(5); type: cell-based, Staphylococcus aureus
Method: as §1

## CC[C@@H](C)[C@@H](NC(=O)[C@@H](Cc1ccccc1)NC(=O)[C@@H](Cc1ccccc1)NC(=O)[C@@H](Cc1ccccc1)NC(=O)[C@H](N)Cc1ccccc1)C(=O)N[C@H](CCCNC(=N)N)C(=O)N[C@H](CCCNC(=N)N)C(=O)N[C@H](CC(C)C)C(=O)N[C@H](Cc1ccccc1)C(=O)N[C@H](CCCNC(=N)N)C(N)=O [RI-HT2] (H-[dF][dF][dF][dF][dI][dR][dR][dL][dF][dR]-NH2; N-terminus assumed)
[1]; 2 × MIC, time 0 min
  Fluorescence intensity: 524 and 562 and 567
[1]; 2 × MIC, time 2 min
  Fluorescence intensity: 516 and 539 and 556
[1]; 2 × MIC, time 3 min
  Fluorescence intensity: 1018 and 1081 and 1049
[1]; 2 × MIC, time 4 min
  Fluorescence intensity: 977 and 1102 and 1036
[1]; 2 × MIC, time 5 min
  Fluorescence intensity: 928 and 1041 and 1003
[1]; 2 × MIC, time 6 min
  Fluorescence intensity: 984 and 1005 and 1049
[1]; 2 × MIC, time 7 min
  Fluorescence intensity: 1019 and 971 and 1090
[1]; 2 × MIC, time 8 min
  Fluorescence intensity: 991 and 1019 and 1055
[1]; 2 × MIC, time 9 min
  Fluorescence intensity: 1058 and 978 and 1012
[1]; 2 × MIC, time 10 min
  Fluorescence intensity: 1037 and 960 and 1078
[1]; 4 × MIC, time 0 min
  Fluorescence intensity: 590 and 529 and 584
[1]; 4 × MIC, time 2 min
  Fluorescence intensity: 584 and 515 and 571
[1]; 4 × MIC, time 3 min
  Fluorescence intensity: 1452 and 1364 and 1296
[1]; 4 × MIC, time 4 min
  Fluorescence intensity: 1513 and 1410 and 1284
[1]; 4 × MIC, time 5 min
  Fluorescence intensity: 1502 and 1400 and 1268
[1]; 4 × MIC, time 6 min
  Fluorescence intensity: 1465 and 1366 and 1261
[1]; 4 × MIC, time 7 min
  Fluorescence intensity: 1429 and 1325 and 1193
[1]; 4 × MIC, time 8 min
  Fluorescence intensity: 1394 and 1320 and 1167
[1]; 4 × MIC, time 9 min
  Fluorescence intensity: 1416 and 1328 and 1128
[1]; 4 × MIC, time 10 min
  Fluorescence intensity: 1397 and 1278 and 1109
[1]; 8 × MIC, time 0 min
  Fluorescence intensity: 592 and 582 and 568
[1]; 8 × MIC, time 2 min
  Fluorescence intensity: 573 and 564 and 570
[1]; 8 × MIC, time 3 min
  Fluorescence intensity: 1540 and 1556 and 1621
[1]; 8 × MIC, time 4 min
  Fluorescence intensity: 1615 and 1608 and 1605
[1]; 8 × MIC, time 5 min
  Fluorescence intensity: 1614 and 1585 and 1626
[1]; 8 × MIC, time 6 min
  Fluorescence intensity: 1612 and 1568 and 1607
[1]; 8 × MIC, time 7 min
  Fluorescence intensity: 1596 and 1549 and 1575
[1]; 8 × MIC, time 8 min
  Fluorescence intensity: 1587 and 1547 and 1574
[1]; 8 × MIC, time 9 min
  Fluorescence intensity: 1570 and 1525 and 1571
[1]; 8 × MIC, time 10 min
  Fluorescence intensity: 1544 and 1527 and 1554
[1]; MIC, time 0 min
  Fluorescence intensity: 565 and 514 and 640
[1]; MIC, time 2 min
  Fluorescence intensity: 559 and 523 and 621
[1]; MIC, time 3 min
  Fluorescence intensity: 708 and 709 and 760
[1]; MIC, time 4 min
  Fluorescence intensity: 641 and 602 and 694
[1]; MIC, time 5 min
  Fluorescence intensity: 610 and 588 and 672
[1]; MIC, time 6 min
  Fluorescence intensity: 609 and 576 and 656
[1]; MIC, time 7 min
  Fluorescence intensity: 589 and 556 and 657
[1]; MIC, time 8 min
  Fluorescence intensity: 594 and 552 and 635
[1]; MIC, time 9 min
  Fluorescence intensity: 581 and 540 and 637
[1]; MIC, time 10 min
  Fluorescence intensity: 570 and 534 and 636
MRSA USA 300; 2 × MIC, time 0 min
  Fluorescence intensity: 504 and 513 and 519
MRSA USA 300; 2 × MIC, time 2 min
  Fluorescence intensity: 504 and 511 and 498
MRSA USA 300; 2 × MIC, time 3 min
  Fluorescence intensity: 472 and 496 and 479
MRSA USA 300; 2 × MIC, time 4 min
  Fluorescence intensity: 488 and 491 and 486
MRSA USA 300; 2 × MIC, time 5 min
  Fluorescence intensity: 497 and 499 and 489
MRSA USA 300; 2 × MIC, time 6 min
  Fluorescence intensity: 508 and 499 and 482
MRSA USA 300; 2 × MIC, time 7 min
  Fluorescence intensity: 484 and 493 and 479
MRSA USA 300; 2 × MIC, time 8 min
  Fluorescence intensity: 487 and 501
MRSA USA 300; 2 × MIC, time 9 min
  Fluorescence intensity: 480 and 490 and 474
MRSA USA 300; 2 × MIC, time 10 min
  Fluorescence intensity: 501 and 500 and 473
MRSA USA 300; 4 × MIC, time 0 min
  Fluorescence intensity: 533 and 527 and 530
MRSA USA 300; 4 × MIC, time 2 min
  Fluorescence intensity: 524 and 523 and 522
MRSA USA 300; 4 × MIC, time 3 min
  Fluorescence intensity: 601 and 580
MRSA USA 300; 4 × MIC, time 4 min
  Fluorescence intensity: 492 and 500 and 513
MRSA USA 300; 4 × MIC, time 5 min
  Fluorescence intensity: 512 and 496 and 490
MRSA USA 300; 4 × MIC, time 6 min
  Fluorescence intensity: 493 and 486 and 463
MRSA USA 300; 4 × MIC, time 7 min
  Fluorescence intensity: 496 and 476 and 456
MRSA USA 300; 4 × MIC, time 8 min
  Fluorescence intensity: 480 and 476 and 436
MRSA USA 300; 4 × MIC, time 9 min
  Fluorescence intensity: 484 and 487 and 446
